Data published in doi:10.1101/2022.11.15.516651.
No constants are given. Whether binding was seen depends on the method and setting. In cells and extracts the contact can be indirect. These calls come from enrichment with a bait or labelling near it, and not all partners need be listed.

Protein sequences, listed by entry. Tags and fused reporters are not part of them. Lines headed by an entry give the natural chain unless they say otherwise; changes in a name come on top. Chains listed by the source or under a name are the forms on record and can include a tag or linker. Residues count along the entry.
FLAG-SLC3A2 WTseq (P08195, residues 66-630): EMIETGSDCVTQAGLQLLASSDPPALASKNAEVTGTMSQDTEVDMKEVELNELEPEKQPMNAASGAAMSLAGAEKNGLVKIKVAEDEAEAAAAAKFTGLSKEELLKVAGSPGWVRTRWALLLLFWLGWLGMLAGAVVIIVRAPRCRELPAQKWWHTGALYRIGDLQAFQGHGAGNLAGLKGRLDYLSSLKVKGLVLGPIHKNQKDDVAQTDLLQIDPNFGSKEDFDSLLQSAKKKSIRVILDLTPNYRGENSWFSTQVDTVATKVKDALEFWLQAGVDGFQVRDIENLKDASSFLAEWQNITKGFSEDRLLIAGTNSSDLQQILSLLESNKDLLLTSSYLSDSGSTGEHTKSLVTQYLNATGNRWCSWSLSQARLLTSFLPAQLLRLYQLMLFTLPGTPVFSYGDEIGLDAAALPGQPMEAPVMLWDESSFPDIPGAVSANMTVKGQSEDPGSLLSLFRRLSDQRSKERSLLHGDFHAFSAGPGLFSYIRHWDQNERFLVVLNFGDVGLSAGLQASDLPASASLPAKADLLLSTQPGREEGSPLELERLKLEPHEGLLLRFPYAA
FLAG-SLC3A2 A273N (P08195, form named): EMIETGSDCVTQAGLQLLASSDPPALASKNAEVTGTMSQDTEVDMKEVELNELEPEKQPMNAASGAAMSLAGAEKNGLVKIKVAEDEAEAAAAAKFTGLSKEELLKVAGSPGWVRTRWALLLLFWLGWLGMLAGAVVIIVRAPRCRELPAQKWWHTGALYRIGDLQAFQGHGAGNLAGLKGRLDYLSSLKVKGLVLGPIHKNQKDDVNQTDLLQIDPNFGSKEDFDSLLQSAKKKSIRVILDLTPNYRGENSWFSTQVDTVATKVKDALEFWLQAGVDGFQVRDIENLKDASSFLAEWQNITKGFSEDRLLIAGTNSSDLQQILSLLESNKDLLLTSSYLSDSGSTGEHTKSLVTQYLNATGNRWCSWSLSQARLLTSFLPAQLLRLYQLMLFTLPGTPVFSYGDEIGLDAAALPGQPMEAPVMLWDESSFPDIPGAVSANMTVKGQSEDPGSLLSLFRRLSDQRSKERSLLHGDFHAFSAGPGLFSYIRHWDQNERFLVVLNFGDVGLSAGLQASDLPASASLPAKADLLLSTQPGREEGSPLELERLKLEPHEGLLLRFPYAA
FLAG-SLC3A2 A273N+D355N (P08195, form named): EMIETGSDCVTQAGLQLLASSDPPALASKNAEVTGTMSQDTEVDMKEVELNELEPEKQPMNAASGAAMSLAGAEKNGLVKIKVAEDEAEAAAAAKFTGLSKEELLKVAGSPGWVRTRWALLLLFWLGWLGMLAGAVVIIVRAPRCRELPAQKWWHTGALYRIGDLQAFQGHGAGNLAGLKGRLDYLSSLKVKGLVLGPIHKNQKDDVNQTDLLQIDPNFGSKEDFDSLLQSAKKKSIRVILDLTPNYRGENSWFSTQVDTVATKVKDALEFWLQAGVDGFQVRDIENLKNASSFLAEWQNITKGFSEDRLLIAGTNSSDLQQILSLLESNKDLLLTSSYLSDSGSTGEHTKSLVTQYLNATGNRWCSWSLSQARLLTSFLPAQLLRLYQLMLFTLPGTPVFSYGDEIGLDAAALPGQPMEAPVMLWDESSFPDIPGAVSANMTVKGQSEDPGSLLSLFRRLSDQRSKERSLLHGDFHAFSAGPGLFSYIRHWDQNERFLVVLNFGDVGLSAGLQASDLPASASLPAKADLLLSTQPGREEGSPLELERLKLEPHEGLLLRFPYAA

Experiments:
Test in all cases: affinity purification with mass spectrometry
[1] = target: FLAG-SLC3A2 A273N (human) (UniProt P08195)
[2] = target: FLAG-SLC3A2 A273N+D355N (human) (UniProt P08195)
[3] = target: FLAG-SLC3A2 WTseq (human) (UniProt P08195)

Measured: binding

B1: SLC38A1 (protein, UniProt Q9H2H9 1-487)
chain: MMHFKSGLELTELQNMTVPEDDNISNDSNDFTEVENGQINSKFISDRESRRSLTNSHLEKKKCDEYIPGTTSLGMSVFNLSNAIMGSGILGLAFALANTGILLFLVLLTSVTLLSIYSINLLLICSKETGCMVYEKLGEQVFGTTGKFVIFGATSLQNTGAMLSYLFIVKNELPSAIKFLMGKEETFSAWYVDGRVLVVIVTFGIILPLCLLKNLGYLGYTSGFSLSCMVFFLIVVIYKKFQIPCIVPELNSTISANSTNADTCTPKYVTFNSKTVYALPTIAFAFVCHPSVLPIYSELKDRSQKKMQMVSNISFFAMFVMYFLTAIFGYLTFYDNVQSDLLHKYQSKDDILILTVRLAVIVAVILTVPVLFFTVRSSLFELAKKTKFNLCRHTVVTCILLVVINLLVIFIPSMKDIFGVVGVTSANMLIFILPSSLYLKITDQDGDKGTQRIWAALFLGLGVLFSLVSIPLVIYDWACSSSSDEGH
binds: all assays above

B2: SLC38A2 (protein, UniProt Q96QD8 1-506)
chain: MKKAEMGRFSISPDEDSSSYSSNSDFNYSYPTKQAALKSHYADVDPENQNFLLESNLGKKKYETEFHPGTTSFGMSVFNLSNAIVGSGILGLSYAMANTGIALFIILLTFVSIFSLYSVHLLLKTANEGGSLLYEQLGYKAFGLVGKLAASGSITMQNIGAMSSYLFIVKYELPLVIQALTNIEDKTGLWYLNGNYLVLLVSLVVILPLSLFRNLGYLGYTSGLSLLCMVFFLIVVICKKFQVPCPVEAALIINETINTTLTQPTALVPALSHNVTENDSCRPHYFIFNSQTVYAVPILIFSFVCHPAVLPIYEELKDRSRRRMMNVSKISFFAMFLMYLLAALFGYLTFYEHVESELLHTYSSILGTDILLLIVRLAVLMAVTLTVPVVIFPIRSSVTHLLCASKDFSWWRHSLITVSILAFTNLLVIFVPTIRDIFGFIGASAASMLIFILPSAFYIKLVKKEPMKSVQKIGALFFLLSGVLVMTGSMALIVLDWVHNAPGGGH
binds: all assays above

B3: SLC1A4 (protein, UniProt P43007 1-532)
chain: MEKSNETNGYLDSAQAGPAAGPGAPGTAAGRARRCAGFLRRQALVLLTVSGVLAGAGLGAALRGLSLSRTQVTYLAFPGEMLLRMLRMIILPLVVCSLVSGAASLDASCLGRLGGIAVAYFGLTTLSASALAVALAFIIKPGSGAQTLQSSDLGLEDSGPPPVPKETVDSFLDLARNLFPSNLVVAAFRTYATDYKVVTQNSSSGNVTHEKIPIGTEIEGMNILGLVLFALVLGVALKKLGSEGEDLIRFFNSLNEATMVLVSWIMWYVPVGIMFLVGSKIVEMKDIIVLVTSLGKYIFASILGHVIHGGIVLPLIYFVFTRKNPFRFLLGLLAPFATAFATCSSSATLPSMMKCIEENNGVDKRISRFILPIGATVNMDGAAIFQCVAAVFIAQLNNVELNAGQIFTILVTATASSVGAAGVPAGGVLTIAIILEAIGLPTHDLPLILAVDWIVDRTTTVVNVEGDALGAGILHHLNQKATKKGEQELAEVKVEAIPNCKSEEETSPLVTHQNPAGPVASAPELESKESVL
binds: all assays above
